# Laboratory results as given in article PMC8698288.
# By UniProt entry, the sequences of proteins in these tests, tags left out. Where a name states a change or a piece, a line headed by the entry shows the natural chain unless it says otherwise.
# UniProt A0A125YH38: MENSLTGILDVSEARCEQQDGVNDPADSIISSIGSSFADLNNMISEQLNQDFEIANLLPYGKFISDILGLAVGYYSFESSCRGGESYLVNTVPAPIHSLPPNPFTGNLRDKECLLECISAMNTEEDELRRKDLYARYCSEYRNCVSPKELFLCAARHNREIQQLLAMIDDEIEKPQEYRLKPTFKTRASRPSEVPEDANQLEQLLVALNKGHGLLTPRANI
# UniProt A0A125YWZ9: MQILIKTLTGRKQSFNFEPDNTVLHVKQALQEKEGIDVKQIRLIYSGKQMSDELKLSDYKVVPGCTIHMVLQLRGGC
# UniProt S8GCY7: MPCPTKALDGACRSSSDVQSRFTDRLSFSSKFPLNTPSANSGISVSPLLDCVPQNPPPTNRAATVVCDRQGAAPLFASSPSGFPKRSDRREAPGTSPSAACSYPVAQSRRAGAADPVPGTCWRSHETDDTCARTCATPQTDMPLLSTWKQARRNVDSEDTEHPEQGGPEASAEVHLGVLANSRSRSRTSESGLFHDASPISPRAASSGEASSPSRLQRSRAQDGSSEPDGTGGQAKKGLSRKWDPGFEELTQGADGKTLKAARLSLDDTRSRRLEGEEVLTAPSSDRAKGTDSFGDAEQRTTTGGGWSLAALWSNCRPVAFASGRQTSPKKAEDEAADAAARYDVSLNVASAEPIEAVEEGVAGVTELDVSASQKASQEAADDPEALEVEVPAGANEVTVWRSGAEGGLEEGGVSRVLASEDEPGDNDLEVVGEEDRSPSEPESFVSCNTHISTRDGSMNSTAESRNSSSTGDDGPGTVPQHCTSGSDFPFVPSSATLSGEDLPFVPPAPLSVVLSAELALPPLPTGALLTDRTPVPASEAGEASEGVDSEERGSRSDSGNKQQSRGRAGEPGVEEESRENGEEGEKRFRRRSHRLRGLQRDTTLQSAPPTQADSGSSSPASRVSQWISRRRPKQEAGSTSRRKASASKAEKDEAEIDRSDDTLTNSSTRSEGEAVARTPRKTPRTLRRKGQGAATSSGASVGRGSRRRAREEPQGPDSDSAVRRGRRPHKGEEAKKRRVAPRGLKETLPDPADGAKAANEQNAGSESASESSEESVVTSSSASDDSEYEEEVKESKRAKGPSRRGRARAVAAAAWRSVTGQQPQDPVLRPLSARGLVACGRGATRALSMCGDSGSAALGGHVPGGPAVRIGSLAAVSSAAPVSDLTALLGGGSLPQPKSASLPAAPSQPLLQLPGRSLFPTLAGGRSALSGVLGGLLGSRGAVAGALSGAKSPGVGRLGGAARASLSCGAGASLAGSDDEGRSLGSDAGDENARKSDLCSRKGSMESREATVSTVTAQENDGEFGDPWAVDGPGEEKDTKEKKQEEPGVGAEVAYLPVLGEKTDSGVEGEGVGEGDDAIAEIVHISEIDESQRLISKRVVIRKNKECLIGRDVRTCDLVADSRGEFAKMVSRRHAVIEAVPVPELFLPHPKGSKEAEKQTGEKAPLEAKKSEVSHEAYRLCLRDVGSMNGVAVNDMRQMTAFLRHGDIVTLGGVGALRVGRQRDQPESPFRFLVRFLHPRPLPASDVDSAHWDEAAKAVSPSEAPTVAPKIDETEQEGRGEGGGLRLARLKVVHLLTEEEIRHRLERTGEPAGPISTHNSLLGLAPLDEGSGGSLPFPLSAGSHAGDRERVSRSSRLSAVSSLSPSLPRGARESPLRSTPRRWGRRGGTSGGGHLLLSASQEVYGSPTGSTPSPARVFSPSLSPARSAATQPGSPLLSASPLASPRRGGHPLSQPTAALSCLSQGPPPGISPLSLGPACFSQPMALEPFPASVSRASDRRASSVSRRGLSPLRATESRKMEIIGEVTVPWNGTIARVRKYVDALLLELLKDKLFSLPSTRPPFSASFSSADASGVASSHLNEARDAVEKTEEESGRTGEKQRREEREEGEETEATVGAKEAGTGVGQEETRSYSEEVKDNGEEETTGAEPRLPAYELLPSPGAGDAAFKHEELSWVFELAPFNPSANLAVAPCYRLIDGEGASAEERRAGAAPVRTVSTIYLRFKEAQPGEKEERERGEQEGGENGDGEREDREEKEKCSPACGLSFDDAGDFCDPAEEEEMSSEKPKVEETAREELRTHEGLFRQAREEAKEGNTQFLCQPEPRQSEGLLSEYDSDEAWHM
# UniProt A0A125YWQ9: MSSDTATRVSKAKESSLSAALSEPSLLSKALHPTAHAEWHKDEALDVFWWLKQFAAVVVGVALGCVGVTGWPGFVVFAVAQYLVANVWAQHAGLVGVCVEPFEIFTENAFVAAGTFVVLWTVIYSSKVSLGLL
# UniProt A0A125YV39: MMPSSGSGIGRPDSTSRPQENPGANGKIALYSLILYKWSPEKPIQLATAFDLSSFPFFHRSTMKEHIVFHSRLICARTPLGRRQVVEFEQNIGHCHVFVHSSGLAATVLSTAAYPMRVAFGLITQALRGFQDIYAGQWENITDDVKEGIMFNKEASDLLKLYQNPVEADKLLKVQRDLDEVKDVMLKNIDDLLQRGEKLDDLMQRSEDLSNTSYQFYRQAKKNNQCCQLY
# UniProt S8F3K1: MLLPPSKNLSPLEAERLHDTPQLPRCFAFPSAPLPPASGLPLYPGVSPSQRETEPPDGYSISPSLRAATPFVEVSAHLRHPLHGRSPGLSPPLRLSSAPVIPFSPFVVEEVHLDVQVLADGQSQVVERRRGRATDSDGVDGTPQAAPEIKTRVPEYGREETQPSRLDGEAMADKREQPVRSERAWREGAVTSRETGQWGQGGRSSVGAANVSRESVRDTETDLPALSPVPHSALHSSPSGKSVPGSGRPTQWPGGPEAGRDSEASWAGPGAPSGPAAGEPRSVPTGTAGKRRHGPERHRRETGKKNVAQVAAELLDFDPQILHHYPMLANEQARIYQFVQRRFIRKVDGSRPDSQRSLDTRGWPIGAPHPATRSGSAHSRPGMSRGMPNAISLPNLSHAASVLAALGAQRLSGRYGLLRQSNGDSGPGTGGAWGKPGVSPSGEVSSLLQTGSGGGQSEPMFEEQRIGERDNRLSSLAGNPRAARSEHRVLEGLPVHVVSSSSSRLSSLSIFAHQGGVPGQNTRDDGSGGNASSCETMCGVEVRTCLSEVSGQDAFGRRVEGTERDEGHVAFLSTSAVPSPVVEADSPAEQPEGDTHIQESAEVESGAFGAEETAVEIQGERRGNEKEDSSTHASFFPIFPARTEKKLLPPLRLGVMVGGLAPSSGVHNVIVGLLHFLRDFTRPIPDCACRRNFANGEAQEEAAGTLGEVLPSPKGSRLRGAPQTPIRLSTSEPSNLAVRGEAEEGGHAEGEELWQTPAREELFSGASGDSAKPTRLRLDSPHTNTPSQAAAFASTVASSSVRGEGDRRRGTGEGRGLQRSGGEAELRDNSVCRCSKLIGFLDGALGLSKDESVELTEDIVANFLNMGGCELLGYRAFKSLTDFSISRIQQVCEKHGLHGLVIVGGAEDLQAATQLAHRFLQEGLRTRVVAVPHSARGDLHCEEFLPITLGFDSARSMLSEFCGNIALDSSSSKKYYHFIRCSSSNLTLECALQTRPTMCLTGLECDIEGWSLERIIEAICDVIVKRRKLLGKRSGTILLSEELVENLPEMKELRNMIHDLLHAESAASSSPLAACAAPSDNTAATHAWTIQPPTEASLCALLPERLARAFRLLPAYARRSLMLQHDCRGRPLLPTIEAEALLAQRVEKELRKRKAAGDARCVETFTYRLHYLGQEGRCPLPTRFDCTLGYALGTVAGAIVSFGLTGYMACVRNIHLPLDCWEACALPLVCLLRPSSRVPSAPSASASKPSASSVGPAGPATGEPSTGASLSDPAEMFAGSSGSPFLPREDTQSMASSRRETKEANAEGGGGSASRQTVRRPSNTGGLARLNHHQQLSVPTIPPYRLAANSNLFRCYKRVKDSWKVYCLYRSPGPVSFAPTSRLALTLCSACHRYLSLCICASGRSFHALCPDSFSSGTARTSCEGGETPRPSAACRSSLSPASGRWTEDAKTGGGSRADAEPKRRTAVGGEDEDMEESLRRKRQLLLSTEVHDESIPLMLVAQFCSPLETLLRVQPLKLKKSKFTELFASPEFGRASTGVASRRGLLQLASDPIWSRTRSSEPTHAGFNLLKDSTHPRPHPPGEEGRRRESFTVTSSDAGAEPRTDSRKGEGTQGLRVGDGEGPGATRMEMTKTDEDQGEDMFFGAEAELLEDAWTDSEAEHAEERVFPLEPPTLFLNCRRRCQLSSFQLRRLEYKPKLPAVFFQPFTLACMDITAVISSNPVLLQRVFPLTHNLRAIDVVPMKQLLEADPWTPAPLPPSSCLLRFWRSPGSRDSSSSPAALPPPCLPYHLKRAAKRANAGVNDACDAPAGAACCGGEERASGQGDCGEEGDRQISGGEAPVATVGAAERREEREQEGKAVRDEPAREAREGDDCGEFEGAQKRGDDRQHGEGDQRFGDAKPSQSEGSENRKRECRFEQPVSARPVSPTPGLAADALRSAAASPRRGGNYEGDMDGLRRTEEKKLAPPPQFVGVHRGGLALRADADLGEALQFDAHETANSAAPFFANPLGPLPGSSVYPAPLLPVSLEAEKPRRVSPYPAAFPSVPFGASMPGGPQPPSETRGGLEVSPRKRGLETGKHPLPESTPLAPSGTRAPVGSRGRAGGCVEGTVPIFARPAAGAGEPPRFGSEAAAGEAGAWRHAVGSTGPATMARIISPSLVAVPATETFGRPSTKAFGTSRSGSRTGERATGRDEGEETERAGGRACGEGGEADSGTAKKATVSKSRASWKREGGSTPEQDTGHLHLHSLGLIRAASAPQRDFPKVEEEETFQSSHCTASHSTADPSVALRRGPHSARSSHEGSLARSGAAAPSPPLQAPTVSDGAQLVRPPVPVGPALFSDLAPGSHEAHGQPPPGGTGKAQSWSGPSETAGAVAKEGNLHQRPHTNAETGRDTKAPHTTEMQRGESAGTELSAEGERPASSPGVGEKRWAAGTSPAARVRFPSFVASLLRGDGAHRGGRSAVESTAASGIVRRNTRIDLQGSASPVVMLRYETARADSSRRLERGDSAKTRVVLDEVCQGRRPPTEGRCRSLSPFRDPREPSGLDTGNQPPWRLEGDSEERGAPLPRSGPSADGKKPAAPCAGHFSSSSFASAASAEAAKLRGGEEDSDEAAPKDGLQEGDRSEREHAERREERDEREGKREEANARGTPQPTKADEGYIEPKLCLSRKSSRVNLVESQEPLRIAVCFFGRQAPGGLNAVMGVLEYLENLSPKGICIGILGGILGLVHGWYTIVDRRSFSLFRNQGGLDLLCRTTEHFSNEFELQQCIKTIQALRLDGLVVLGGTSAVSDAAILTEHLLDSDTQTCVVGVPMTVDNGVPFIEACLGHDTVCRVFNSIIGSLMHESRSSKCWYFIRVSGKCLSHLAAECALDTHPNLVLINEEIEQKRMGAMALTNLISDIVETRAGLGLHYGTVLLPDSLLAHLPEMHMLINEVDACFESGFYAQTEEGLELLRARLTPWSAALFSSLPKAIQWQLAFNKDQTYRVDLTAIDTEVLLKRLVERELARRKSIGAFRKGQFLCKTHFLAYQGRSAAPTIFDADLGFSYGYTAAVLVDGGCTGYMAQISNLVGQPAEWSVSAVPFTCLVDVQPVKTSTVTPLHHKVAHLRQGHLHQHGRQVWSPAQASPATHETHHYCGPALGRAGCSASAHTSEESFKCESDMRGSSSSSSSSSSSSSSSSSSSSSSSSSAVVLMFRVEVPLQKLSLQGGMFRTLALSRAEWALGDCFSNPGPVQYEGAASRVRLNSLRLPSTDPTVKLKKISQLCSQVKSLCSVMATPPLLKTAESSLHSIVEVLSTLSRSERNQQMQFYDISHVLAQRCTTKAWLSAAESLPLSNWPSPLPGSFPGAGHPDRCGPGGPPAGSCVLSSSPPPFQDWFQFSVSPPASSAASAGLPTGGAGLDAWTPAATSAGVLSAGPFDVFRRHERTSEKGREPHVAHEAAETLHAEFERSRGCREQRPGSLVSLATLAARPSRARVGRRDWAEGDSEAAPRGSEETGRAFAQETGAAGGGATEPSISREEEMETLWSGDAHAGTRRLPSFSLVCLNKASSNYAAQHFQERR
# UniProt A0A125YV97: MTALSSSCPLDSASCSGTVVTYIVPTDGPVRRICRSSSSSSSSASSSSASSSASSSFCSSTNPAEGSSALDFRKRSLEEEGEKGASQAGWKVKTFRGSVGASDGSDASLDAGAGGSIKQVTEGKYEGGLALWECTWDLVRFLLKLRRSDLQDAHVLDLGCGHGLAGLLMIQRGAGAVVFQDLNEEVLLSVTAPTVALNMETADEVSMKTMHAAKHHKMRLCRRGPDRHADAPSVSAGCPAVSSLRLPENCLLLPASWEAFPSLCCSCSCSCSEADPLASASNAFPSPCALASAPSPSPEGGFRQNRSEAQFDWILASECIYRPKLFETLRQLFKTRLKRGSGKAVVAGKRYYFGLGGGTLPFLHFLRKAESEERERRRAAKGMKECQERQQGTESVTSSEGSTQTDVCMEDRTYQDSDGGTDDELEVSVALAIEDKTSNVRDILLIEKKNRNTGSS
# Molecular target: FLAG-BirA*-MOB1 (Toxoplasma gondii MOB1 fused to the C-terminal end of FLAG-BirA*) (Toxoplasma gondii)
# Assay: proximity labelling; BioID: FLAG-BirA*-MOB1 (control: FLAG-BirA*) tachyzoites in HFF cells, 150 µM biotin for 56 h; lysate in sucrose-based lysis buffer on agarose-streptavidin beads overnight at 18 °C; nanoLC-MS/MS; three biological replicates
row,Molecule,binding
1,Mediator complex subunit MED8 (from UniProt A0A125YH38),binds
2,Uncharacterized protein TGME49_210345 (from UniProt S8F0M9 1-3457),binds
3,Uncharacterized protein TGME49_309890 (from UniProt S8EYN6 1-3142),binds
4,DNA repair protein RAD51 (from UniProt A0A125YQJ7 1-354),binds
5,Ubiquitin family protein TGME49_254600 (from UniProt A0A125YWZ9 1-77),binds
6,FHA domain-containing protein TGME49_262780 (from UniProt S8GCY7 1-1843),binds
7,Uncharacterized protein TGME49_309050 (from UniProt A0A125YUF0 1-784),binds
8,Uncharacterized protein TGME49_222090 (from UniProt A0A125YWQ9 1-133),binds
9,DEAD/DEAH box helicase domain-containing protein TGME49_260450 (from UniProt S8GCG2 1-1841),binds
10,Aspartyl aminopeptidase TGME49_297970 (from UniProt A0A125YW18 1-508),binds
11,SNARE protein TGME49_215420 (from UniProt A0A125YV39 1-230),binds
12,AB hydrolase-1 domain-containing protein TGME49_223510 (from UniProt A0A125YJT8),binds
13,Phosphofructokinase domain-containing protein TGME49_281400 (from UniProt S8F3K1 1-3562),binds
14,Eukaryotic translation initiation factor 2A (from UniProt S8GDZ2 1-1821),binds
15,Uncharacterized protein TGME49_268320 (from UniProt S8F435 1-2061),binds
16,Uncharacterized protein TGME49_312410 (from UniProt A0A125YV97 1-456),binds
17,Anaphase-promoting complex subunit1 (from UniProt S8ESM4),binds
18,"Thiamine diphosphokinase TGME49_215250 (protein, UniProt S8G4A8 1-816) MRADDAAIPSSRPQPSNSLVTQRSLLSSSCFFFFFLLFVFFFLSAVVPSPLAFRDARAAPLHLGTRSVKMRLLAQCLGDRRSSLSLHPPPVFAASVSAKRLNRTSEDKAGHSIKSKERKRGENSRGESQWGEHPRGEGQEIKESSLCNTEQRGNAHSQESFKIYTLLACASPLFLSRLSYGLFPSAFLPAAFFSPYESRTFFSSAHRLASQLTPSLVTPTTMPRIRFTAAGSSFSQTFRTPSCSSYRHRLYSSHRLFFPRPSSVPLSSPRSPFPLICPPSFSCYTLPLTSLPCSSRSCSSLAPSWFAASRCQPAPLSPSLRFPDTVSRRHWEEASFTMPASGVRSTPAEVSPRFSRAPCPLLFCPSPPRKEGGLACTPQRARNLTTAVKHEETENLRDLRLLEQWFLPASPSSSLHSSCPPSSSPPSLSSSSSPPSSSYSSSSPSARLFVLVLNRPLPAYAQRLLASCTSYVVSDGGGNALLELFQKEEEAARRARQADGLQEAADSGCHEAARSCEVFGEEDPKSSETQDGRPGSCVDWRDKEGRPANRRGATKLPEALCGDLDSLSDEAKEYFETRGVPVLWWEDQDLPDVEKAWRLLLAPKRFSSNDVVIILGAIGGRLDHTLCAIHVLYKLTAEHEAAEARAKAVEKREGNGEESREGQRGNATPASGKSAADGSGVSPPCRPPARVGPLPQIYLLGEDSLCFLVSKGRTRVIPSDLLITRQCALIPCGEAVSGVTTEGLRWNLTPDMRLNFGEFISTSNQISEEVLASAKSRTDASCGVSIDAAMPLLWYSQMRLQPSGAFEPPLEKSHES",binds
19,"Uncharacterized protein TGME49_234560 (protein, UniProt S8EWL5 1-1285) MATSLHSRLVAAMPRNPAELSRAFDLDDMVQKKPRRQSSGVVVPGGARGLVVRTYRGILDGSEDEDPDSVNPEAHEVQVAWADGSVENIAREQIELLDRPFYAGDLVVGQDGKSLGLVVEVKQIADVRLVSSRATRRPSALAGRASRSSVLSVDSVSSFSSRLATRGPRGVSAAALPLADPLEPVRLEGLQINALGSLPLPHEPPLLRPLQAFEVGTPVIKGGHLGAVINCKVDYLVKLDSGHEFTLEHGMEGVRPDPRQGYPTEAYGLFPSQRIYVTGEWLRDFQEQLQTRQERRERAGEAEEDTVEAHRLCRGVVKSFAVRRVKVNWLLEDSETWSSAPPSQPLASQATEHDCSELLPLQQFVLRLGQPVYVNIRHNPTASLLAAVNPPLNGSSLNASAVHSSPPNASSLNASSSNGSSVNISAVNASLAPCVFQSVLPSSEAGVSPELKRSALDAAETVSEDPHSVSNPTLITNSSSSSSSSPASSSSSSLSCSSSASPEDPLYRLGVVESVSTRCCVLWEDGRVSQEAGRALTPVNVDRVPLAHSEFVVGLAILPHMFVTKKFTQDDLESAAREEEAAETRARAAGPAWWNAPYFGDTELGPHTSVPDELKAVEVVRALSKVSREIGIAEYLGRTPLEVSPFDSHSRDRAHRSDRGAERAGDRATDRGSERAGERGEREQRERGQERRGGFPAGRRRERRGRDGELRQGDRETGQPPRETDVAETRPAAEEHNPEQPGQERGENGDRANERGDASVEQGGGVSSDEDAWEDCGSEEGSAESEANGSARQEPLGIREARLPCGLGPGLVTGASVRDAVGHLQELFQCLQDAVGPANLGLPIYKRVPVLRSVPVSDEGEERRDPRAEGSGDAGAEPRGTPEPSARSEANAESAQKANPTWSRHSSDGSSDASSSCPRAVVRRSRSPEAEAPARLHALVGRMESGEWRRELFQLVEFVRMASPSAAGDGSWALDTAQMQGVLNCVMALRGEAALAALNRARGREAREVGVVVRVDSKEKQATVAWLADPQAFFDRARRLREKMAETDEERSGKDLARVTERQLARFGIAMWCGGRQEPPRDDAAGALYTTTAEDYTADEVAELVRMETVPLAELSPLSRFLFFPGDCALLVDDAARLAGESKSGRDDESSSLEQRENAKKDKVYLQVLAACGGLVWCRTFDGRVAPFAPTELVPLNTRWCDMELSYEESSDEESEYSEADSDGSSEDDSEDRETQSYESSDLDEWGSDSGSTNVTDLSDPVGNGPSRCSSVERMSDRSQDVAGG",binds
20,"Uncharacterized protein TGME49_271600 (protein, UniProt S8G9T3 1-504) MTDVFDRPPDDYSKSRGIQITMIPTEREGRQPEEADGRLPEQHARSSSKVHDGGHCTEAGDMVDWSREQAIANQRNDKHENFLSSGGREDALPFACEEDMPEGGLQAHDEADNRATEAKLGSSLSSFSSLEEAFLTSLDVISSLRDAVTLLLRAQGVPTEGEGRHQQLNDYEQNVSRKQAMDVMVSTGAFSCHPQAYESLLKTGERTKGGKRLPGGESPGIANCVGIIADEHMSREEHAGAVKADRREHPCLTETVQDKISSSRHPAGEQERRRGTLECCTHSLNSDYELSICKALLMLQHIGGPEESKPMGVDPPLGGFPLLSQERGSFPLGVVDDGGPAHLRQGRQRSPELEPIATQPLSQHLRTTTDGAGDRHAGAEACCSSFDQLQAMRIRGKAGDGAPASDLGLSFASFTLDKMKNSVDQSETKKHVRTVDLMQMLLKVRLLRQAHLLLRADVLVMRKQQGLQQERLNRALQAAVKRHESERDSLLCRLQKLASLLQKK",binds
21,"Heat shock protein hslv, putative (TGME49_272230) (protein, UniProt S8GJ86 1-338) MAVCAAFRRFRLDGPLCSSAFPGRSRGATWMLSSACCSKRNYSASPQTPFSFQNGRAVCNRAVVGDSSSSSSARRFFSASSKFPFAAPSLSQSPSRFSGTRRLYTYGAPAAGGVEHCAGFDRSRFTASPFVPPRHATTILCVRKGDQVCVAGDGMVSQGQMIVKPNARKVRRLQDGVVCGFAGATADCFTLLEKLEAKLEEYPGQLLRSCVELAKQWRTDRYLRHLEAVLIVADKKMSLEVSGVGDVLESHDGILGVGSGGPYAVAAARALYDIDGLSAHEICKRSMAIAASMCCHTNDRVIFEVLENEAKPMETPQSSPVSTDVRQISDSSSAQTSP",binds
22,"Peptidase family M3 protein TGME49_272670 (protein, UniProt S8GJE2 1-1094) MHARSGLLLRGVQAAGGRAHHQRSDSLPSVLVMRSRRSLPPRNSLSASVSSPPVFFLPRSLCRNNSSGTRSSHSSSLTFHRVPPASSTLERRTLRRPFASLSRLSHSGQSEWRRQPHGLCSSPPCFSSTFPTPSPPRKPGLFSFLSGLTQISSRGSRAAGSDELRPGLLQLPGVHTPEQLVRLGRQAVADCEAFLATGGAPTSSSSGSREEGKLSSPSSCPSSASSGDASDVSSSWKEARRAVQALDAVSNTLCKVADGSELLRQVHPDPRWKQAGAEVVAHVQDFMSRVNVNNKVYDKLHRLTEALGDSLSREAQAPSCLSLPSSSTSASSSPSTSYPSSSSLPSSLSSSLSASPSSASSEDEGNMAEGDEGAGVSSAQTENAEKHRLTTEEILVLRSMRDAMEQQGVFLEPQVKDRYLRLLTEEATLAAGIAERQETPQSTEGFLVSTDVLLASGVPASLLAQLQGEKRSFFSPRRRPLCRRGGSGGDQVLVAAHSELAHVILRQSADSGLRREVYELQRLPGKDDKETEKQLLRLLHLRQELAKLRGYPTWTAYAQRDGILKTPDKINAFLSRLLDALRPGVESDLKTLSVFGASSGLLRDAKGLDPWDLPFLLRAYSVRTPDGSTGARSISIRDLLEGMQSVVERLLGLRFVRAPTAKGETWHWSVLRYELHEAPSSRASRLFSFSPSSSASPPSSSLDASSSSLRGVLYLDLWARPSKTRLLAQFTVRGSKRLSYAHGQGWRLGGPLWLSAVQRLSREGAASEDEASATATVAVEEELRQIPCAALVCSLPPPPEVDMTQPTGPDVDRLLEATSLSASLTRSLLHECGHVLHSLLSETELQHLSGTRGAVDFAEFPSNLFEHFSAPLLDGYLASPTRRARPALGSDGRGKACNFAHLGALQLLLHACVDQAFYSFVPGVSELPPCSGDARAPSPPPEAVDAQLAALRGCLDTAFSRHHWLAGDPRPGVTEQPICDVVGRPQMARFEHLVHYGGSYFCYLLCRVMSSFAWQHAFAKDPFDRETGKRLHAILRRGSIDCSLRPILELAGPGVLSETQKEQLLNNPHLLPVEPFLEELHADDASAAAELPFP",binds

# Results are given in words; binding and its absence hold for the method and conditions named. In cells and extracts the contact can be indirect. A yes stands for co-enrichment or nearness to the bait. Other partners may have been found.
